# Inconclusive means that the source gave no clear call. Such entries were picked first, then a sample of the others. Where the call is inconclusive, the potency comes from a doubtful curve fit. Calls of active or inactive are those of the source. Calls come from the whole dose curve; as a rule, active = well fitted curve in the direction sought with a large enough effect; inconclusive = small, poorly fitted or top-dose-only effect, or effect the other way, or another doubt; inactive = no such curve, though single readings can be large or run the other way; the record names alpha-glucosidase in its text, so the target is in doubt.
# Experiment: Confirmation of Inhibitors and Activators of Purified Human alpha-Galactosidase
# Conditions: purified enzyme, fluorogenic 4-MU substrate, 20 min; series mostly up to 51.1 µM
# Text: NIH Chemical Genomics Center [NCGC]
# NIH Molecular Libraries Probe Production centers Network [MLPCN]
# Assay Submitter (PI): Wei Zheng
# Alpha-glucosidase is responsible for hydrolysis of terminal, non-reducing 1,4-linked alpha-D-glucose residues with release of alpha-D-glucose. It is a lysosomal hydrolase that is required for the degradation of a small percentage (1-3%) of cellular glycogen in human. Deficiency of this enzyme results in glycogen-storage disease type II (GSDII), also referred to as Pompe disease, an autosomal recessive disorder. Structurally normal glycogen is accumulated in lysosomes and cytoplasm in affected patients, primarily in muscle tissues. Excessive glycogen storage within lysosomes may interrupt normal functioning of other organelles and leads to cellular injury. In turn, this leads to enlargement and dysfunction of the entire organ involved (eg, cardiomyopathy and muscle weakness).
# It has reported that the improper folding and trafficking of alpha-glucosidase resulting from the genetic mutations may account for a significant number of Pompe patients. […] We optimized this alpha-glucosidase assay in 1536-well plate format for identifying the novel small molecule inhibitors with the structures other than the sugar analogs in order to develop the new pharmacological chaperones.
# NCGC Assay Protocol Summary:
# This is a fluorogenic enzyme assay with 4-methylumbelliferyl-alpha-D-[…] as the substrate and human alpha-glucosidase as the enzyme preparation. Upon the hydrolysis of this fluorogenic substrate, the resulting product, 1. 4-methyllumbelliferone, can be excited at 365 nm and emits at 440 nm which can be detected by a standard fluorescence plate reader. Data were normalized to the controls for basal activity (without enzyme) and 100% activity (with enzyme). In the AC50 values were determined from concentration-response data modeled with the standard Hill equation.
# Assay buffer: 50 mM citric acid (titrated with potassium phosphate to pH 5.0), 0.005% Tween-20, pH 5.0. (pH 5.0 is an optimal condition for this enzyme assay)
# 1536-well assay protocol for the human alpha-glucosidase:
# (1) Add 2 ul/well of enzyme (4 nM final)
# (2) Add 23 nL compounds in DMSO solution. The final titration was 0.7 nM to 77 uM.
# (3) Add 1 ul of substrate (400 uM final)
# (4) Incubate at room temperature for 20 min.
# (5) Add 2 ul stop solution (1M NaOH and 1M Glycine mixture, pH 10)
# (6) Detect the assay plate in a ViewLux plate reader (PerkinElmer) with Ex=365 nm and Em=440nm.
# Keywords: Alpha-glucosidase, Pompe Disease, pharmacological chaperone, chaperone therapy, high throughput screening, alpha-glucosidase inhibitor, MLSMR, MLSCN, NIH Roadmap, qHTS and NCGC
# Potency is the fitted concentration of half-maximal effect.
row,SMILES,Potency
1,COc1cc(/C=C/c2ccc3ccccc3n2)cc(OC)c1O,inactive
2,COc1ccc2nc(-c3ccc(N(C)C)cc3)sc2c1,"inconclusive: 3.55 µM [activator, partial curve, poor fit]"
3,Cc1cccn2c(=O)c(/C=C(\C#N)C(=O)NC3CCS(=O)(=O)C3)c(N3CCC(C)CC3)nc12 (centres undefined),active: 10 µM
4,N#C/C(=C\c1c(N2CCCCC2)nc2ccccn2c1=O)C(=O)NC1CCS(=O)(=O)C1 (centres undefined),active: 14.1 µM
5,COc1cc2nc(N(C)C)nc(N)c2cc1OC,"inconclusive: 12.6 µM [activator, partial curve]"
6,N=C1c2c(cc(=O)n3c2[nH]c2ccccc23)CN1CCN1CCOCC1,"inconclusive: 12.6 µM [activator, full curve]"
7,CCCCCCc1cc2cc(C(=O)NC)c(=N)oc2cc1O,"inconclusive: 39.8 µM [activator, partial curve, poor fit]"
8,O=C1c2cc(O)c(O)cc2S(=O)(=O)C1c1ccccc1 (centres undefined),"inconclusive: 130 µM [inhibitor, partial curve]"
9,CC(=O)Nc1c(S(=O)(=O)c2ccccc2)c2nc3ccccc3nc2n1Cc1ccccc1,active: 50.1 µM
10,O=c1oc2cc(O)ccc2cc1-c1nc2c(s1)CCc1ccccc1-2,"inconclusive: 25.1 µM [activator, partial curve]"
11,C=CCNC(=O)/C(C#N)=C/c1c(N2CC(C)OC(C)C2)nc2ccccn2c1=O (centres undefined),"inconclusive: 14.1 µM [activator, single point]"
12,Cc1ccc2nc3c(cc(C(=O)NCC4CCCO4)n3C)c(=O)n2c1 (centres undefined),"inconclusive: 15.8 µM [activator, full curve]"
13,COc1ccc(/C=C(/NC(=O)c2ccccc2)C(=O)NC(Cc2c[nH]c3ccccc23)C(=O)O)cc1 (centres undefined),"inconclusive: 206 µM [inhibitor, partial curve]"
14,COc1ccc(/C=C/c2nnc(NC(=O)CSc3ccc(Cl)cc3)s2)cc1,inactive

# Reformatted: entries from further up
row	SMILES	Potency
10	O=c1oc2cc(O)ccc2cc1-c1nc2c(s1)CCc1ccccc1-2	inconclusive: 25.1 µM [activator, partial curve]
11	C=CCNC(=O)/C(C#N)=C/c1c(N2CC(C)OC(C)C2)nc2ccccn2c1=O (centres undefined)	inconclusive: 14.1 µM [activator, single point]
